The name of at least one read-out is uncertain. Marks after values point to notes of the source that are not given here.
Experiments:
Type in all cases: physicochemical
[1] = Compatibility with infusion vehicles (NS, D5W)
Description: The compatibility of the reconstituted Compound 1 formulation with two infusion vehicles, normal saline (NS) and 5% dextrose in water (D5W) was tested after Δt=4 h for two concentration (high/low) at c(Compound 1, target)=0.1 mg/mL and c(Compound 1, target)=1.0 mg/mL and at ambient conditions (Table 10). The average values of % recovery are relative to the dilution of the reconstituted drug product into DI water at to.

[2] = Reconstitution and reconstitution stability of the lyophilized Compound 1 drug product; details: reconstituted drug product
Description: The lyophilized Compound 1 drug product was subjected to testing of reconstitution and to stability testing for 6 h after reconstituted with DI water VDIwater=5 mL.
The lyophilization cake readily reconstituted within 10-20 s. The solution during reconstitution appeared quite foamy and contained many bubbles, which cleared within approximately 2 min addition of the reconstitution solution. Residual micro-bubbles on the container wall can be removed by vortexing (2 s) or sonication (2 s). […] The pH of the reconstituted solution was measured with pH=6.81; the osmolality was determined to φ=295 mOsm/kg. The reconstituted solution was practically free of particulates as determined by liquid particle counting (LPC, HIAC: Vsample=5 mL, nruns=4, 1st run discarded, fdilution=10, Vnominal, container=2 mL) with a cumulative count of 3200 particles at a size of 10 μm and 667 particles at a size of 25 μm.
The recovery of Compound 1 was monitored for 24 h after reconstitution to test for the in-use stability of the reconstituted solution (Table 9)

[3] = Compatibility with infusion bags
Description: (§1) The compatibility of the reconstituted Compound 1 formulation with two infusion bags (different volumes and material) and two IV lines was tested (Table 13) at c(Compound 1)=0.1 mg/mL. After injection of the reconstituted drug product solution into infusion bags filled with NS, the recovery of Compound 1 was measured i) directly after mixing with the infusion vehicle (to, Table 14) and ii) after Δt=[…] of contact time with the infusion bag (Table 15). Additionally, storage in an infusion bag at ambient temperature and lighting conditions was assessed for Δt=6 h (Table 15). The average values of % recovery are relative to the reconstituted drug product that has not been in contact with the tested materials.

[4] = Compatibility with vials and stoppers
Description: The compatibility of the reconstituted Compound 1 formulation with sterile manufacturing vials and stoppers (Table 17) was tested for a contact time of Δt=1 h at c(Compound 1, target)=10 mg/mL at ambient conditions. The average values of % recovery are relative to the reconstituted drug product that has not been in contact with the tested materials.

[5] = Compatibility with sterilization filters
Description: The feasibility of aseptic processing was evaluated and three different filter materials were tested for compatibility with the reconstituted Compound 1 formulation.
Filter compatibility of the reconstituted Compound 1 drug product was tested with different filter material (Table 17) composed of polyethersulfone (PES), nylon, and polyvinylidene fluoride (PVDF). For this a volume of Vfilter pass=10 mL was passed through the respective filter and the first as well as the last 10 vol % of the filtered volume were assayed for recovery of Compound 1 (Table 12).
The average values of % recovery are relative to the reconstituted drug product that has not been in contact with the tested materials.

[6] = Liquid injectable formulation: compounding, dilution into infusion vehicles, stability; details: diluted into normal saline, 0.03 mg/mL, ambient, 48 hours
Description: Compounding process for liquid formulations of Compound 1, designed for dilution into infusion vehicles was developed with 3.0 mg/mL of Compound 1 (or 3.13 mg/mL Compound 1 free base equivalent), phosphate buffer solution (PBS), and pH of 6.4-7.2. The compounding process was applied over a wide range of scales (25-500 mL).
The compounding of the drug product required a neutralization step using 0.5N sodium hydroxide solution and buffering with PBS to adjust the pH to values compatible with an IV infusion. The compounding process also required a filtration step, which also served as aseptic processing.
The compounded formulations were diluted into infusion vehicles: normal saline, 5% dextrose in water (D5W), and lactated Ringer's solution (buffered and unbuffered). The dilution into normal saline was carried out at 100-fold and 600-fold dilution.

[7] = Compatibility with IV systems
Description: as §1
The two IV systems were evaluated for compatibility with the reconstituted drug product solution by filling the IV lines with the diluted (NS) drug product solution and flowing Vflow through (FT)=101 mL through the respective IV system at a flow rate of 5 mL/min. Flow-through samples of Vsample=1 mL were collected i) immediately (VFT=0 mL), ii) after VFT=10 mL and iii) after VFT=[…]. Flow through samples were assayed for recovery of Compound 1 and compared to the infusion solution in the reservoir at t0 (Table 16).

C[C@@H](NC(=O)N1C(=O)[C@H](Cc2ccnc(N)c2)[C@H]1C(=O)O)C1CCCCC1 [Compound 1, (2S,3R)-3-[(2-aminopyridin-4-yl)methyl]-1-{[(1R)-1-cyclohexylethyl]carbamoyl}-4-oxoazetidine-2-carboxylic acid]
Avg. % Compound 1 Recovery ([1]; target 0.1 mg/mL, D5W, t = 4 h, ambient): 100% | Avg. % Compound 1 Recovery ([1]; target 0.1 mg/mL, NS, t = 4 h, ambient): 100% | Avg. % Compound 1 Recovery ([1]; target 0.1 mg/mL, Water, t0 (reference)): 100% | Avg. % Compound 1 Recovery ([1]; target 0.1 mg/mL, Water, t = 4 h, ambient): 100% | Avg. % Compound 1 Recovery ([1]; target 1.0 mg/mL, D5W, t = 4 h, ambient): 99% | Avg. % Compound 1 Recovery ([1]; target 1.0 mg/mL, NS, t = 4 h, ambient): 100% | Avg. % Compound 1 Recovery ([1]; target 1.0 mg/mL, Water, t0 (reference)): 100% | Avg. % Compound 1 Recovery ([1]; target 1.0 mg/mL, Water, t = 4 h, ambient): 100% | Avg. % Compound 1 Recovery ([2]; t0 (reference set to 100%)): 100* % | Avg. % Compound 1 Recovery ([2]; t = 1 h): 98% | Avg. % Compound 1 Recovery ([2]; t = 2 h): 95% | Avg. % Compound 1 Recovery ([2]; t = 4 h): 95% | Avg. % Compound 1 Recovery ([2]; t = 6 h): 96% | Avg. % Compound 1 Recovery ([2]; t = 24 h): 93% | Avg. % Compound 1 Recovery ([3]; Sample soln. (water), reference): 100* % | Avg. % Compound 1 Recovery ([3]; infus. bag1 (500 mL Viaflo, NS), t0, relative to sample soln. (water)): 96% | Avg. % Compound 1 Recovery ([3]; infus. bag1, t0 (reference of Table 15)): 100* % | Avg. % Compound 1 Recovery ([3]; infus. bag1, t = 10 min, relative to bag t0): 100% | Avg. % Compound 1 Recovery ([3]; infus. bag1, t = 6 h, ambient, relative to bag t0): 100% | Avg. % Compound 1 Recovery ([3]; infus. bag2 (50 mL Viaflex, NS), t0, relative to sample soln. (water)): 88% | Avg. % Compound 1 Recovery ([3]; infus. bag2, t0 (reference of Table 15)): 100* % | Avg. % Compound 1 Recovery ([3]; infus. bag2, t = 10 min, relative to bag t0): 100% | Avg. % Compound 1 Recovery ([3]; infus. bag2, t = 6 h, ambient, relative to bag t0): 100% | Avg. % Compound 1 Recovery ([4]; Reconst. Soln., no contact (reference)): 100* % | Avg. % Compound 1 Recovery ([4]; Stopper, t = 1 h, target 10 mg/mL, ambient): 100% | Avg. % Compound 1 Recovery ([4]; Vial, t = 1 h, target 10 mg/mL, ambient): 100% | Avg. % Compound 1 Recovery ([5]; Nylon filter, first 10% of 10 mL): 99% | Avg. % Compound 1 Recovery ([5]; Nylon filter, last 10% of 10 mL): 100% | Avg. % Compound 1 Recovery ([5]; PES filter, first 10% of 10 mL): 100% | Avg. % Compound 1 Recovery ([5]; PES filter, last 10% of 10 mL): 100% | loss in Compound 1 recovery on filtration ([5]; PES, nylon, PVDF filters at studied pass volumes and concentrations): no significant loss | Avg. % Compound 1 Recovery ([5]; PVDF filter, first 10% of 10 mL): 100% | Avg. % Compound 1 Recovery ([5]; PVDF filter, last 10% of 10 mL): 100% | Avg. % Compound 1 Recovery ([5]; Sample Soln. (pre-filtration), reference): 100* % | loss in Compound 1 recovery [6]: no significant loss | Avg. % Compound 1 Recovery ([7]; IV#1, VFT = 0 mL, 5 mL/min): 100% | Avg. % Compound 1 Recovery ([7]; IV#1, VFT = 10 mL, 5 mL/min): 100% | Avg. % Compound 1 Recovery ([7]; IV#1, VFT = 100 mL, 5 mL/min): 100% | Avg. % Compound 1 Recovery ([7]; IV#2, VFT = 0 mL, 5 mL/min): 100% | Avg. % Compound 1 Recovery ([7]; IV#2, VFT = 10 mL, 5 mL/min): 100% | Avg. % Compound 1 Recovery ([7]; IV#2, VFT = 100 mL, 5 mL/min): 100% | changes in Compound 1 recovery after flow through IV systems ([7]; either IV test system): no changes | Avg. % Compound 1 Recovery ([7]; infus. bag, t0 (IV#1), reference): 100* % | Avg. % Compound 1 Recovery ([7]; infus. bag, t0 (IV#2), reference): 100* %

From patent US20230270731A1, “THERAPEUTIC COMPOUNDS AND COMPOSITIONS” (eXIthera Pharmaceuticals, Inc., priority 2019, published 2023)
